{"source": "PubChem BioAssay AID602196 – INSERM | 2012", "purpose": "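Modifiers of cisplatin sensitivity in A549 cells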", "cells": "human A549 lung cancer cells", "reagents": "siRNA pair against human genes", "time to read-out": "48 h transfection before cisplatin; time from cisplatin to read-out not stated", "treatment": "cisplatin at a dose killing half of control-siRNA cells; exact dose and duration not given", "read-out": "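Cisplatin cell death as a shift from the 50% death seen with control siRNA; siRNAs toxic or growth-blocking alone scored 0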", "scale": "two-siRNA summed score (-2 to +2): higher = both siRNAs protect from cisplatin killing; -2 means both sensitise; mean protection from cisplatin (shift in death): higher = protection from cisplatin killing", "hit rule": "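siRNAs harmful alone (LDH or WST-1) get 0; others get +1 for less and -1 for more cisplatin killing; genes are active when the two siRNAs give the same sign, summing to ±2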", "calls": "active = both siRNAs shift cisplatin killing the same way; inactive = no consistent shift, or siRNA harmful alone", "note": "This is a random part of about 23,000 deposited reagents. Over the whole deposit, 455 (2%) were called active. 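Active includes both protection and sensitisation; some change values fall well beyond the stated -50 to +50 range.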 Not all columns of the deposit are shown. No sequences are given here. Not given: the amount of reagent."}
{"target gene": "LOC401915", "two-siRNA summed score (-2 to +2)": -1, "mean protection from cisplatin (shift in death) (%)": -4.1, "Outcome": "inactive"}
{"target gene": "E2F1", "two-siRNA summed score (-2 to +2)": 0, "mean protection from cisplatin (shift in death) (%)": -9.5, "Outcome": "inactive"}
{"target gene": "GPALPP1", "two-siRNA summed score (-2 to +2)": -1, "mean protection from cisplatin (shift in death) (%)": -12.8, "Outcome": "inactive"}
{"target gene": "POP5", "two-siRNA summed score (-2 to +2)": 0, "mean protection from cisplatin (shift in death) (%)": 3.7, "Outcome": "inactive"}
{"target gene": "LOC441099", "two-siRNA summed score (-2 to +2)": 0, "mean protection from cisplatin (shift in death) (%)": -0.1, "Outcome": "inactive"}
{"target gene": "SLC25A38P1", "two-siRNA summed score (-2 to +2)": 2, "mean protection from cisplatin (shift in death) (%)": 14.5, "Outcome": "active"}
{"target gene": "FBXW12", "two-siRNA summed score (-2 to +2)": 0, "mean protection from cisplatin (shift in death) (%)": 0.7, "Outcome": "inactive"}
{"target gene": "CYTH4", "two-siRNA summed score (-2 to +2)": -1, "mean protection from cisplatin (shift in death) (%)": -3.4, "Outcome": "inactive"}
{"target gene": "PRODHLP", "two-siRNA summed score (-2 to +2)": 0, "mean protection from cisplatin (shift in death) (%)": 7.4, "Outcome": "inactive"}
{"target gene": "LOC340913", "two-siRNA summed score (-2 to +2)": 1, "mean protection from cisplatin (shift in death) (%)": 3.4, "Outcome": "inactive"}
{"target gene": "ZNRF2", "two-siRNA summed score (-2 to +2)": 0, "mean protection from cisplatin (shift in death) (%)": 4.4, "Outcome": "inactive"}
{"target gene": "IFIT2", "two-siRNA summed score (-2 to +2)": 0, "mean protection from cisplatin (shift in death) (%)": -10.5, "Outcome": "inactive"}
{"target gene": "LOC400812", "two-siRNA summed score (-2 to +2)": 1, "mean protection from cisplatin (shift in death) (%)": 7.6, "Outcome": "inactive"}
{"target gene": "FGFR2", "two-siRNA summed score (-2 to +2)": 0, "mean protection from cisplatin (shift in death) (%)": -3, "Outcome": "inactive"}
{"target gene": "PRKCB", "two-siRNA summed score (-2 to +2)": 1, "mean protection from cisplatin (shift in death) (%)": 4.7, "Outcome": "inactive"}
{"target gene": "FCHSD1", "two-siRNA summed score (-2 to +2)": 0, "mean protection from cisplatin (shift in death) (%)": 0.8, "Outcome": "inactive"}
{"target gene": "PRSS27", "two-siRNA summed score (-2 to +2)": 0, "mean protection from cisplatin (shift in death) (%)": -4.6, "Outcome": "inactive"}
{"target gene": "GPSM3", "two-siRNA summed score (-2 to +2)": 0, "mean protection from cisplatin (shift in death) (%)": -0.4, "Outcome": "inactive"}
{"target gene": "LOC442145", "two-siRNA summed score (-2 to +2)": 1, "mean protection from cisplatin (shift in death) (%)": 16.8, "Outcome": "inactive"}

Entries listed so far whose target name starts with L or l:
{"target gene": "LOC401915", "two-siRNA summed score (-2 to +2)": -1, "mean protection from cisplatin (shift in death) (%)": -4.1, "Outcome": "inactive"}
{"target gene": "LOC441099", "two-siRNA summed score (-2 to +2)": 0, "mean protection from cisplatin (shift in death) (%)": -0.1, "Outcome": "inactive"}
{"target gene": "LOC340913", "two-siRNA summed score (-2 to +2)": 1, "mean protection from cisplatin (shift in death) (%)": 3.4, "Outcome": "inactive"}
{"target gene": "LOC400812", "two-siRNA summed score (-2 to +2)": 1, "mean protection from cisplatin (shift in death) (%)": 7.6, "Outcome": "inactive"}
{"target gene": "LOC442145", "two-siRNA summed score (-2 to +2)": 1, "mean protection from cisplatin (shift in death) (%)": 16.8, "Outcome": "inactive"}

Additional entries follow.
{"target gene": "LOC115131", "two-siRNA summed score (-2 to +2)": 1, "mean protection from cisplatin (shift in death) (%)": 6.9, "Outcome": "inactive"}
{"target gene": "OTOA", "two-siRNA summed score (-2 to +2)": 0, "mean protection from cisplatin (shift in death) (%)": 4.7, "Outcome": "inactive"}
{"target gene": "SLC26A9", "two-siRNA summed score (-2 to +2)": 0, "mean protection from cisplatin (shift in death) (%)": 9.3, "Outcome": "inactive"}
{"target gene": "LOC388910", "two-siRNA summed score (-2 to +2)": -1, "mean protection from cisplatin (shift in death) (%)": -8.6, "Outcome": "inactive"}
{"target gene": "OVGP1", "two-siRNA summed score (-2 to +2)": 1, "mean protection from cisplatin (shift in death) (%)": 11.9, "Outcome": "inactive"}
{"target gene": "UNC13D", "two-siRNA summed score (-2 to +2)": 0, "mean protection from cisplatin (shift in death) (%)": 28.2, "Outcome": "inactive"}
{"target gene": "FBXL7", "two-siRNA summed score (-2 to +2)": 0, "mean protection from cisplatin (shift in death) (%)": -9.9, "Outcome": "inactive"}
{"target gene": "GCLM", "two-siRNA summed score (-2 to +2)": -1, "mean protection from cisplatin (shift in death) (%)": -17.8, "Outcome": "inactive"}
{"target gene": "LOC388617", "two-siRNA summed score (-2 to +2)": 0, "mean protection from cisplatin (shift in death) (%)": -5.4, "Outcome": "inactive"}
{"target gene": "CCDC102B", "two-siRNA summed score (-2 to +2)": 0, "mean protection from cisplatin (shift in death) (%)": -0.5, "Outcome": "inactive"}
{"target gene": "TDP2", "two-siRNA summed score (-2 to +2)": 0, "mean protection from cisplatin (shift in death) (%)": -27.1, "Outcome": "inactive"}
{"target gene": "PPM1B", "two-siRNA summed score (-2 to +2)": -2, "mean protection from cisplatin (shift in death) (%)": -18.5, "Outcome": "active"}
